The record followed here is patent US20260184793A1 (TJ BIOPHARMA SHANGHAI, published 2026).

By UniProt entry, the sequences of proteins in these tests, tags left out. Where a name states a change or a piece, a line headed by the entry shows the natural chain unless it says otherwise. Residues count along the entry.
UniProt Q9NZQ7: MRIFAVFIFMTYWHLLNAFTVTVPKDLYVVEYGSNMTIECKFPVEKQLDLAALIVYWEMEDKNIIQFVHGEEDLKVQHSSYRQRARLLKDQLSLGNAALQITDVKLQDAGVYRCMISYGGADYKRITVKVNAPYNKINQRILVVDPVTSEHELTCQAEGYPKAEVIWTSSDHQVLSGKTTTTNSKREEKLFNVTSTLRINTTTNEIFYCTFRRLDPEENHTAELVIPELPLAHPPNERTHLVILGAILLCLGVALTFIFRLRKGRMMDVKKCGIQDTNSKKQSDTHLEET
human PD-L1 expressed on cells (Raji cells overexpressing human PD-L1; CHO cells): residues 19-290 of Q9NZQ7

To fix the notation:
B1: R21448511 (VHH)
VHH: EVQLVESGGGLVQPGGSLRLSCAASGFTFTFRHYVMGWFRQAPGKEMEFVADISWSGSGSYYADSVKGRFTISRDNSKNTVYLQMNSLRAEDTAVYYCAADMTTRMSQDSREYDYWGQGTLVTVSS
B2: R21448512 (VHH)
VHH: B1 VHH with D109A, R111D
B3: R21448510 (VHH)
VHH: B1 VHH with R105E, D109A
B4: R21448503 (VHH)
VHH: B1 VHH with D109A
B5: R21448514 (VHH)
VHH: B1 VHH with R32Y, M47R
notes: ELISA detection with anti-human IgG Fc implies a human Fc part that is not described
B6: R21448508 (VHH)
VHH: B1 VHH with R32Y, M47R, D52A
notes: as for B5
B7: R21448506 (VHH)
VHH: B1 VHH with M47R, D52A, D109A, R111D
notes: as for B5
B8: R21448505 (VHH)
VHH: B1 VHH with M47R, D52A
notes: as for B5
B9: R21448516 (VHH)
VHH: B1 VHH with R32Y, M47R, R105E, R111D
notes: as for B5
B10: R21448519 (VHH)
VHH: B1 VHH with M47R, D52A, R111D
notes: as for B5
B11: R21448518 (VHH)
VHH: B1 VHH with M47R, D52A, R105E, D109A, R111D
notes: as for B5
B12: R21448509 (VHH)
VHH: B1 VHH with R32Y, M47R, D52A, D109A, R111D
notes: as for B5
B13: R21448517 (VHH)
VHH: B1 VHH with M47R, D52A, R105E
notes: as for B5
B14: R21448507 (VHH)
VHH: B1 VHH with R32Y, M47R, D52A, R105E, D109A
notes: as for B5
B15: R21448515 (VHH)
VHH: B1 VHH with R32Y, M47R, D109A, R111D
notes: as for B5
B16: R21448504 (VHH)
VHH: B1 VHH with M47R, D52A, R105E, D109A
notes: as for B5
B17: R21448513 (VHH)
VHH: B1 VHH with R32Y, M47R, R105E, D109A
notes: as for B5
B18: R21448502 (VHH)
VHH: B1 VHH with R32Y, M47R, D52A, D109A
notes: as for B5
B19: R21560103 (VHH)
VHH: EVQLVESGGGLVQPGGSLRLSCAASGFTFSSGTQFSDSKIDWYRQAPGKGLVWVAGIFSTGSTIYEDSVKGRFTISRDNAKNTGYLQMNSLRAEDTAVYYCRVIGIGILAWGQGTLVTVSS
notes: as for B5
B20: R21560106 (VHH)
VHH: B19 VHH with I40A, I106R, I108T
notes: as for B5
B21: 93-VH-8 (VHH)
VHH: B1 VHH with F27R, E46G, M47L, D52A, D109A
B22: 93-VH-6 (VHH)
VHH: B1 VHH with M47R, D52A, D109A
B23: 93-VH-4 (VHH)
VHH: B1 VHH with E46G, M47L, D52A, D109A
B24: 112-VHH5-PTM (VHH)
VHH: B19 VHH with F27S, T28I, G50Q, L51R, V52D, T74A, T83S, G84L, I106R

Residue numbers refer to the chain shown, from its start. No constants are given. Whether binding was seen depends on the method and setting. Some results given as binding are weak or reduced against the parent protein; the word gives no strength.

The target of the first assay is human PD-L1 expressed on cells (Raji cells overexpressing human PD-L1; CHO cells) (human) (UniProt Q9NZQ7). Nature of the assay: flow cytometry on CHOK1-PDL1 cells (cell binding assay), GMFI.
As for B1, the binding entry is given as “binds”. On the same count and under the same terms, with B2 the entry was “binds”; with B3, “binds”.

The next assay deals with T1, human His-PD-L1 (human, UniProt Q9NZQ7 19-238, limits assumed).
T1 construct: also called human PD-L1
In words: ELISA blocking assay: antibody titrated together with Biotin-PD-1 on coated human His-PD-L1, Streptavidin-HRP, OD450.
Take B1: the binding entry was “binds”. Regarding B2, the binding result is “binds”. Take B3: the binding result is “binds”.

A further assay has as its target T1, human His-PD-L1. Nature of the assay: ELISA: plate coated with human His-PD-L1, antibody titrated, goat anti-human IgG Fc HRP, OD450.
For B1, the binding entry is given as “binds”. Same read-out and setting: for B2 the value was “binds”. Same read-out and setting: for B4 the value was “binds”; for B3, “binds”.

The target in another assay is T1, human His-PD-L1. Nature of the assay: ELISA, coated human His-PD-L1, anti-human IgG Fc HRP.
Take B1: the binding result is on record as “binds”.

In the case of B2, the binding result is on record as “binds”. Take B4: the binding entry is recorded as “binds”. As for B3, the binding entry is “binds”.

In a further assay the target is human PD-L1 expressed on cells (Raji cells overexpressing human PD-L1; CHO cells) (human) (UniProt Q9NZQ7). In words: flow cytometry, PD-L1 expressed on CHO or Raji cells.
Regarding B1, the binding result is on record as “binds”. Same read-out and setting: with B2 the entry was “binds”.

For B4, the binding result is given as “binds”.

With B3, the binding entry is “binds”.

For the next assay, the target named is human PD-L1 (antigen, analyte in the Biacore kinetics) (human) (UniProt Q9NZQ7). Nature of the assay: Biacore, full kinetics, antigen 50-1.5625 nM as analyte.
Turning to B1, the binding entry is recorded as “binds”.

On to B2, for which the binding result is reported as “binds”.

B4: the binding result was “binds”. Same read-out and setting: with B3 the entry was “binds”; with B5, “binds”. In the case of B6, the binding result is given as “binds”. Still for that read-out and setting: with B7 the entry was “binds”; with B8, “binds”.

For the molecule B9, the binding entry was “binds”. The same measure, in the same setting: for B10 the value was “binds”; for B11, “binds”; for B12, “binds”. Same read-out and setting: for B13 the value was “binds”. The same measure, in the same setting: for B14 the value was “binds”; for B15, “binds”; for B16, “binds”.

With B17, the binding result is on record as “binds”.

For B18, the binding result was “binds”. On the same count and under the same terms, for B19 the value was “binds”; for B20, “binds”.

The target is the same in the next assay. In words: Biacore, full kinetics.
For the molecule B21, the binding entry is recorded as “binds”.

For B22, the binding entry is recorded as “binds”. B23: the binding entry is on record as “binds”. On the same count and under the same terms, for B24 the value was “binds”.
